# Values of other authors in patent US6974839B2, “Method of delaying ejaculation” (DMI BioSciences, Inc., priority 2001, dated 2005).
# Tested on: reuptake of norepinephrine
# Details: cited from earlier work
compound,measurement,value
"COc1cccc(C2(O)CCCCC2CN(C)C)c1 (stereo not shown) [tramadol, 2-[(dimethylamino)methyl]-1-(3-methoxyphenyl)-cyclohexanol]",inhibition of reuptake of norepinephrine,weak inhibition
